PubChem BioAssay AID1053208 | Peter MacCallum Cancer Centre – 2014
Here is a random part of about 17,000 reagents. 788 of all reagents (4.7%) were called active. 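Calls rest on z-score classes alone; an extra cut-off of viability at most 70% of control was not applied to them.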 Not all columns of the deposit are shown.

- Test: 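Find knock-downs that sensitise mouse osteosarcoma cells to doxorubicin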 (primary screen)
- System: mouse osteosarcoma cells, early-passage culture from an engineered mouse model of fibroblastic bone tumour
- Reagent: siRNA pool against mouse genes, 40 nM
- Timing: about 120 h (48 h before drug, then 72 h with drug)
- Conditions: doxorubicin 100 nM for 72 h, roughly 30-40% inhibitory dose
- Detection: 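Luminescent ATP signal taken as viability with or without 100 nM doxorubicin for 72 h; mean of two wells set against non-targeting siRNA and turned into robust z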
- Reading the numbers: viability z-score with doxorubicin: higher = more viable cells under doxorubicin; viability z-score without drug: higher = more viable cells with knock-down alone
- Active means: 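Called active if knock-down leaves viability unchanged without drug (z within -2 to 2) but lowers it with doxorubicin (z at or under -2)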

With knock-down of Pced1a, the record shows combined z-score class no change with or without drug; viability z-score with doxorubicin 0.34; viability z-score without drug -0.84; inactive.
With knock-down of Angptl3 the results were combined z-score class no change with or without drug; viability z-score with doxorubicin -1.01; viability z-score without drug -0.84; inactive.
With knock-down of B930095G15Rik the results were combined z-score class no change with or without drug; viability z-score with doxorubicin -1.35; viability z-score without drug -0.84; inactive.
Silencing of Aif1l resulted in: combined z-score class no change with or without drug; viability z-score with doxorubicin -0.22; viability z-score without drug 0.17; inactive.
Against Tmem81 the deposit lists combined z-score class high cell count without drug only; viability z-score with doxorubicin -1.12; viability z-score without drug 3.54; inactive.
Silencing of Adgre1 gave: combined z-score class no change with or without drug; viability z-score with doxorubicin 0.67; viability z-score without drug 1.18; inactive.
With knock-down of Bcap29, the screen gave combined z-score class no change with or without drug; viability z-score with doxorubicin -0.67; viability z-score without drug -0.84; inactive.
Erlin1 scored combined z-score class no change with or without drug; viability z-score with doxorubicin -0.9; viability z-score without drug 0.17; inactive.
With knock-down of Oga, the record shows combined z-score class no change with or without drug; viability z-score with doxorubicin -0.56; viability z-score without drug -0.17; inactive.
For Slc2a10, the entry reads combined z-score class no change with or without drug; viability z-score with doxorubicin -1.24; viability z-score without drug 1.01; inactive.
Depletion of Timm21 gave: combined z-score class no change with or without drug; viability z-score with doxorubicin -1.8; viability z-score without drug 1.69; inactive.
Knock-down of Zng1 gave: combined z-score class no change with or without drug; viability z-score with doxorubicin 1.01; viability z-score without drug 0; inactive.
Against Tmem68 the deposit lists combined z-score class no change with or without drug; viability z-score with doxorubicin -0.67; viability z-score without drug 1.18; inactive.
Pyurf scored combined z-score class no change with or without drug; viability z-score with doxorubicin 1.8; viability z-score without drug 1.52; inactive.
Zdhhc20 scored combined z-score class no change with or without drug; viability z-score with doxorubicin -0.9; viability z-score without drug 0.34; inactive.
Knock-down of Pmis2 resulted in: combined z-score class low cell count with doxorubicin only; viability z-score with doxorubicin -2.36; viability z-score without drug -0.51; active.

2 entries from above, showing only “viability z-score with doxorubicin”:
B930095G15Rik: -1.35
Aif1l: -0.22

Continued:
Pak2 scored combined z-score class no change with or without drug; viability z-score with doxorubicin 0.67; viability z-score without drug 0.34; inactive.
With knock-down of Etv3 the results were combined z-score class no change with or without drug; viability z-score with doxorubicin -0.9; viability z-score without drug 0.17; inactive.
With knock-down of Reep4 the results were combined z-score class no change with or without drug; viability z-score with doxorubicin 1.91; viability z-score without drug 0.67; inactive.
Knock-down of Lrfn5 came out at: combined z-score class no change with or without drug; viability z-score with doxorubicin -1.12; viability z-score without drug -0.84; inactive.
Enah scored combined z-score class no change with or without drug; viability z-score with doxorubicin -0.34; viability z-score without drug -0.84; inactive.
After knock-down of 5730596B20Rik the results were combined z-score class no change with or without drug; viability z-score with doxorubicin -0.79; viability z-score without drug 0.67; inactive.
Silencing of Rxfp2 came out at: combined z-score class no change with or without drug; viability z-score with doxorubicin -1.12; viability z-score without drug -1.18; inactive.
After knock-down of Prok2 the results were combined z-score class no change with or without drug; viability z-score with doxorubicin -0.45; viability z-score without drug 1.69; inactive.
Against Slc39a1, the entry reads combined z-score class low cell count with doxorubicin only; viability z-score with doxorubicin -2.25; viability z-score without drug -1.69; active.
Olfr900 scored combined z-score class high cell count without drug only; viability z-score with doxorubicin -0.22; viability z-score without drug 2.19; inactive.
Klhl23 showed combined z-score class no change with or without drug; viability z-score with doxorubicin -0.67; viability z-score without drug -0.84; inactive.
With knock-down of Hoxa13 the results were combined z-score class no change with or without drug; viability z-score with doxorubicin 0.56; viability z-score without drug -1.18; inactive.
